This is a selection; strong and weak results do not stand in their true shares. Small differences around the control level are noise.

Protein sequences, listed by entry. Tags and fused reporters are not part of them. Lines headed by an entry give the natural chain unless they say otherwise; changes in a name come on top.
UniProt P77730: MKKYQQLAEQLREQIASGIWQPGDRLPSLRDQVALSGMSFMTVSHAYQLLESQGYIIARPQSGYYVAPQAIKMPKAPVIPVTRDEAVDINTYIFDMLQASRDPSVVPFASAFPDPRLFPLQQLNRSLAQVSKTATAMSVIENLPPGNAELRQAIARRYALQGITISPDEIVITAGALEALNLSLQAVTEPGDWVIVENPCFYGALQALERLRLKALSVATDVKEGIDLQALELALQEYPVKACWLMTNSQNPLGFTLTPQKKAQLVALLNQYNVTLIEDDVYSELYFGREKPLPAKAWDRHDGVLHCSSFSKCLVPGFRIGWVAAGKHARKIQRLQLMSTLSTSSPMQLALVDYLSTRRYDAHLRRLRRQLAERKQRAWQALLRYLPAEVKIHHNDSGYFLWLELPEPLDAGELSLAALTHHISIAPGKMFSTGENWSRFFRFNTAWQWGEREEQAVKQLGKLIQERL
UniProt P77454: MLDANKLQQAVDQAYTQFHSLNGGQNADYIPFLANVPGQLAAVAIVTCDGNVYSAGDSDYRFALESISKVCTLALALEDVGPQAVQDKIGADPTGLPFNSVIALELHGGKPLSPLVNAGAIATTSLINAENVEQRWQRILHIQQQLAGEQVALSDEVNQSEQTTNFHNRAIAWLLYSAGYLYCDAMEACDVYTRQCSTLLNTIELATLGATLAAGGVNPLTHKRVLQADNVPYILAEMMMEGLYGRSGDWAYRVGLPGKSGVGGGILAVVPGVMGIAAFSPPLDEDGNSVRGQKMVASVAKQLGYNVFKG
UniProt P77329: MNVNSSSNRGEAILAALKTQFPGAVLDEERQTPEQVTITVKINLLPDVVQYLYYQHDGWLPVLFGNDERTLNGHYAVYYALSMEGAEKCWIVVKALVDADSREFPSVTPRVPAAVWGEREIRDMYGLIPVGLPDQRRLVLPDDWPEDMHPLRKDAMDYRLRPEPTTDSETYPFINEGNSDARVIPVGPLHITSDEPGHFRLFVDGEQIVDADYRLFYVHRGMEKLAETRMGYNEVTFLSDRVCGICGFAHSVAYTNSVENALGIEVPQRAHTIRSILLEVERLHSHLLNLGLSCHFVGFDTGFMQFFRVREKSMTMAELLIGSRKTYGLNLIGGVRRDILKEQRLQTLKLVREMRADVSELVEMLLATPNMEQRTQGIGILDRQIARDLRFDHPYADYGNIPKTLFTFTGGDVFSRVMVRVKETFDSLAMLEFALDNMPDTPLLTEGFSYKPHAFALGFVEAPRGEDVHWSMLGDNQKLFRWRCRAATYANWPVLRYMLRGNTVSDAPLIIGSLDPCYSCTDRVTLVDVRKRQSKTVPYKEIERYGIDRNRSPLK
UniProt P77634: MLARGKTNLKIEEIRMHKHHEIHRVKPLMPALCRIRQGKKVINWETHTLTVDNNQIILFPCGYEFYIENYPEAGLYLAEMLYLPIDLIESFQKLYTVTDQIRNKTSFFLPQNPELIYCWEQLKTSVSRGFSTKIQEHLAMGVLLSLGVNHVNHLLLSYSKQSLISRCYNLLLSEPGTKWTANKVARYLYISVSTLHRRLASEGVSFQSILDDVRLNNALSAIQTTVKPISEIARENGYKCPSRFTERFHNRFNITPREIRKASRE
UniProt P77609: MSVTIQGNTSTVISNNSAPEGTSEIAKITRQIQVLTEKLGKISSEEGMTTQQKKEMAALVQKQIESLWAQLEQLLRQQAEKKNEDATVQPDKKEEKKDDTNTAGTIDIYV
UniProt P77712: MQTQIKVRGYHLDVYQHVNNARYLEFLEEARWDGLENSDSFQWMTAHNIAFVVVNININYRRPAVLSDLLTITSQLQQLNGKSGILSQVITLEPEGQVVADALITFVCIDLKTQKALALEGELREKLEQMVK
UniProt P77554: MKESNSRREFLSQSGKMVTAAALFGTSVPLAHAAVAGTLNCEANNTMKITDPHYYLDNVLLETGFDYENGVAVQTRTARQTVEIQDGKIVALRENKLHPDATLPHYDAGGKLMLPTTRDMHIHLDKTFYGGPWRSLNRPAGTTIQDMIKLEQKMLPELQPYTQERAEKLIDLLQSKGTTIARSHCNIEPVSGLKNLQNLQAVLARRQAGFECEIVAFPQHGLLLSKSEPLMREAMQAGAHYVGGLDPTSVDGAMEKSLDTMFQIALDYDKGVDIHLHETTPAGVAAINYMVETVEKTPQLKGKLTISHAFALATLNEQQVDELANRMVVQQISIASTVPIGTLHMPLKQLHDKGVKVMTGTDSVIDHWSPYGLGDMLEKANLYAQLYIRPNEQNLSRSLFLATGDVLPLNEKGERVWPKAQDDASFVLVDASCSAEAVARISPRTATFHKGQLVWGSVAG
UniProt Q46836: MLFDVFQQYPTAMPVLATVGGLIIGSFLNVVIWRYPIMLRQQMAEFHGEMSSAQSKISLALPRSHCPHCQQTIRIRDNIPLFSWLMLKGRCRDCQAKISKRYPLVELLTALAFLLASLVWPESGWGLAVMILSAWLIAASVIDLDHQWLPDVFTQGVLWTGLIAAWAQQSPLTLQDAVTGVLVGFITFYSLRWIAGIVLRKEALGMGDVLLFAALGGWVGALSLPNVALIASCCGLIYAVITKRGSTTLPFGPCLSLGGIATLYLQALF
UniProt Q47679: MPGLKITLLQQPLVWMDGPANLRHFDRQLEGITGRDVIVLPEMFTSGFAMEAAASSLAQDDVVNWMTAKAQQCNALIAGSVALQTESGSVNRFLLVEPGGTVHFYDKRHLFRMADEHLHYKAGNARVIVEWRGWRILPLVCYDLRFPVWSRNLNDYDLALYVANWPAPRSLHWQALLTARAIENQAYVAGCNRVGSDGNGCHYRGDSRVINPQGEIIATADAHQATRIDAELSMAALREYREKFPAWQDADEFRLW
UniProt Q57083: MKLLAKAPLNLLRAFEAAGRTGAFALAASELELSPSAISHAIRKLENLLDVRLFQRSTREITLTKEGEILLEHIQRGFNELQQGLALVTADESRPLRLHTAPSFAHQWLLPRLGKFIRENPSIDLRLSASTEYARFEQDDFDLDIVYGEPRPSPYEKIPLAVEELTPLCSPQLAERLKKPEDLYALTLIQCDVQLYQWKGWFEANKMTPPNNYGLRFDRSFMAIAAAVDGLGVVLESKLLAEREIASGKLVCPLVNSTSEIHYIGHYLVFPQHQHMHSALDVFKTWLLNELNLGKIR
UniProt Q46901: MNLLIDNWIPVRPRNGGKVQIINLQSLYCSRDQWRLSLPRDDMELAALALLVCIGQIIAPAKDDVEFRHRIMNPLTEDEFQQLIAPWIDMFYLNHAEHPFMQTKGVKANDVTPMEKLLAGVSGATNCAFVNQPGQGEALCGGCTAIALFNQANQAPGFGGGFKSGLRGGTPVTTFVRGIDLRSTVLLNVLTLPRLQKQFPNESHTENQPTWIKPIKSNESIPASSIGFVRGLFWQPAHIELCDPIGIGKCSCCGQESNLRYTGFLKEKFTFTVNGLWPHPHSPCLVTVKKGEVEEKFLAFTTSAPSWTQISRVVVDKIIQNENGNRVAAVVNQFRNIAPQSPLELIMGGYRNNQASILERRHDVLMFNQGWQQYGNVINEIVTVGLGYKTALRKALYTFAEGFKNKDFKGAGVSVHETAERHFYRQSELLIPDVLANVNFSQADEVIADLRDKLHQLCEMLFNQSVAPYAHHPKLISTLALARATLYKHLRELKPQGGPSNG
UniProt Q46899: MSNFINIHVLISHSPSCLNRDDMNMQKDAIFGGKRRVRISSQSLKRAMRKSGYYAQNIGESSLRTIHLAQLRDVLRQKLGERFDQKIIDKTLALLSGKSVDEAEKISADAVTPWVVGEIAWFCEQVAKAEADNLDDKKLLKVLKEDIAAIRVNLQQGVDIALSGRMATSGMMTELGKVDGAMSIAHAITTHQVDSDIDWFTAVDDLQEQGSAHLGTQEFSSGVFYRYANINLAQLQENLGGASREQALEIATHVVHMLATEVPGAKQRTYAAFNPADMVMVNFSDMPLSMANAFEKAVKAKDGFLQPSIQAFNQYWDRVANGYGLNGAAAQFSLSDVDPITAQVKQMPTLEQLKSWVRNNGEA
UniProt P77309: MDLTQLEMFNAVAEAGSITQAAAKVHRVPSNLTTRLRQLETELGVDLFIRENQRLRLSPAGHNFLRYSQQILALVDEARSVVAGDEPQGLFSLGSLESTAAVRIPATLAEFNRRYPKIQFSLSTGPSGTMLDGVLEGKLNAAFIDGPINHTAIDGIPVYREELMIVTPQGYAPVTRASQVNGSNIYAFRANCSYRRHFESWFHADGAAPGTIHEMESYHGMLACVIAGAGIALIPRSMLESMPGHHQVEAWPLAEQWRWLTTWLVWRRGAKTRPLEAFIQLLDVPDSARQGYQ
UniProt P77564: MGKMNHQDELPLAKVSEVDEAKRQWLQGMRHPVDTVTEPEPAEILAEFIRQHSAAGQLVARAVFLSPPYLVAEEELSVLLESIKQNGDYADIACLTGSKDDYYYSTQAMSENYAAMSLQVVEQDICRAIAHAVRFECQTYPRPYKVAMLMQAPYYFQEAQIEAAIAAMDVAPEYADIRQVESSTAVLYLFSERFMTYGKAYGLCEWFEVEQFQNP
UniProt P77626: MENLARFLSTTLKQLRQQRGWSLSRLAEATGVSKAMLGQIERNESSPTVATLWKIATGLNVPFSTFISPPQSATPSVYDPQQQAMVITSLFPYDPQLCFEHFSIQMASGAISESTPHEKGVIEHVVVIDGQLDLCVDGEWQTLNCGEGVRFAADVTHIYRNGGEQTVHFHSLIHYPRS
UniProt Q47710: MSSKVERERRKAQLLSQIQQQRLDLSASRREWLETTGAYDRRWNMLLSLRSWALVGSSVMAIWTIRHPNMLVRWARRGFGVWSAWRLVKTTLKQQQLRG
UniProt Q46939: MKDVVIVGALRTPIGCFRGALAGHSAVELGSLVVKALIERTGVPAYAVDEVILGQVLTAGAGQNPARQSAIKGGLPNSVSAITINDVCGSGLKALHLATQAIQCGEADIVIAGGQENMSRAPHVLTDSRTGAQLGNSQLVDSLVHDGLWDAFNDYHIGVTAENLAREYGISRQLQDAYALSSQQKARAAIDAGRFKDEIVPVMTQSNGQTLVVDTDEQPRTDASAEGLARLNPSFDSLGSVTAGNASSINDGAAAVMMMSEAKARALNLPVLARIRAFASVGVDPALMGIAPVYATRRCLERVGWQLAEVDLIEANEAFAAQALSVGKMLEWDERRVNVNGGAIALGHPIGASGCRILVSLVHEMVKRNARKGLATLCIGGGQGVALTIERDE
UniProt Q46835: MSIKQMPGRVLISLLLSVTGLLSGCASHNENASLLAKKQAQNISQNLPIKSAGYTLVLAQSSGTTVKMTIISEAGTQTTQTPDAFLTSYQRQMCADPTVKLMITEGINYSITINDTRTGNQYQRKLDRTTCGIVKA
UniProt P77690: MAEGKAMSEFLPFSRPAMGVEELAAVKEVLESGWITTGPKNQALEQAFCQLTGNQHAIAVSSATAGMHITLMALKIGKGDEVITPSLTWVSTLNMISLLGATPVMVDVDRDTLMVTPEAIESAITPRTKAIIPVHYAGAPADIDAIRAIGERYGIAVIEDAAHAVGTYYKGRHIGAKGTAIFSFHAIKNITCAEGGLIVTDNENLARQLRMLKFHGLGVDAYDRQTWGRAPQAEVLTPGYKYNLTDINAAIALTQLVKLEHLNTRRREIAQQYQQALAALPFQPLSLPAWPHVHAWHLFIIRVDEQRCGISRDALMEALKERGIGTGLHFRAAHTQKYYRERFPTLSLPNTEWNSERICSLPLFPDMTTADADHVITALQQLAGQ
UniProt P77667: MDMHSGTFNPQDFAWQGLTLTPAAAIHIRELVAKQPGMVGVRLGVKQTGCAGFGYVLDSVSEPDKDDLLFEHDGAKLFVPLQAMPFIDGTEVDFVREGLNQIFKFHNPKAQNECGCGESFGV
UniProt Q46911: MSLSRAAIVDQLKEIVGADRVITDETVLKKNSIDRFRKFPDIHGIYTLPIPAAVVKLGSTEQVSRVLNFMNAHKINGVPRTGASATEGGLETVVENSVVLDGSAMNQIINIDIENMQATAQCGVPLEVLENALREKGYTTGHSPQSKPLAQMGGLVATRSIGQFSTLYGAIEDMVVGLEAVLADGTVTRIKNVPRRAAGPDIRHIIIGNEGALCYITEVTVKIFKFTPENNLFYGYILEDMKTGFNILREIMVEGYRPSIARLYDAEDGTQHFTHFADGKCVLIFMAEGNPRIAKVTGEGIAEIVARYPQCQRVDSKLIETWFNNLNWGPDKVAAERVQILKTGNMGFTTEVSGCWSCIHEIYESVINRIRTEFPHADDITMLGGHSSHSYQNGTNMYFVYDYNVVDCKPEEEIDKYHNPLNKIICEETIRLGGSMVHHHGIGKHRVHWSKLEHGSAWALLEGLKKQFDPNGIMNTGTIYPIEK
UniProt Q47150: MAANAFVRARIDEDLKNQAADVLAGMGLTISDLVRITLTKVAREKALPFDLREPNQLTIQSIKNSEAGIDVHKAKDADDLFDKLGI
UniProt Q46801: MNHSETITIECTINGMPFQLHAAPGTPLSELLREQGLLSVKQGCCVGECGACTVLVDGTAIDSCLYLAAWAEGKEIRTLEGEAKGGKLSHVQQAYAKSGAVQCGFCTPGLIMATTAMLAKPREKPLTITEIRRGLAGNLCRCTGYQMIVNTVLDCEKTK

Results on 40 targets are retold here after the supplement of paper PMC12819154, “High-throughput peptide-centric local stability assay extends protein–ligand identification to membrane proteins, tissues and bacteria” (Nature Structural & Molecular Biology, 2025).
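Further: lysate desalted by size exclusion to strip endogenous ATP, peptide intensities built from DIA-NN precursor signals, and peptides missing any value discarded before comparison.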

Compound in the experiment: Nc1ncnc2c1ncn2[C@@H]1O[C@H](COP(=O)(O)OP(=O)(O)OP(=O)(O)O)[C@@H](O)[C@H]1O [adenosine 5'-triphosphate]
Kind of experiment: log2 fold change of tryptic peptide abundance, ligand vs vehicle (limited proteolysis) (log2 ratio); higher = more trypsin-susceptible (destabilized). Particulars: ligand concentration: 5 mM; sample: E. coli desalted lysate; replicate design: treated before aliquoting. How it is done:
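HT-PELSA: desalted E. coli K-12 BW25113 lysate (with 12 mM MgCl2) incubated with 5 mM ATP (pH 7) or water for 30 min at 25 C, then a 4 min trypsin pulse at 22 C. Peptides were quantified by DIA-MS (4 replicates). Value is the peptide log2 fold change (treated/control); negative = stabilized. Scale: negative = ligand-stabilized region.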
As to “UniProt Q47319 (peptide sequence: CQRCLLPEKLCLCSTITPAQAK, peptide start residue: 31)”, the log2 fold change was -1.97.
As to “UniProt P77730 (peptide sequence: LFPLQQLNR, peptide start residue: 117)”, the log2 fold change is -0.244.
The value for “UniProt P77256 (peptide sequence: KIPLGTTDITLSR, peptide start residue: 3)” was 0.967.
The value for “UniProt Q46808 (peptide sequence: GETADFTSVSDK, peptide start residue: 500)” was 0.48.
As to “UniProt P77454 (peptide sequence: QLGYNVFKG, peptide start residue: 302)”, the log2 fold change worked out at 0.159.
The value for “UniProt Q46908 (peptide sequence: GATLIDGQTVAEK, peptide start residue: 232)” was -0.499; that for “UniProt Q47536 (peptide sequence: WGDRFVAVTQK, peptide start residue: 83)” was 0.308; that for “UniProt P77329 (peptide sequence: TQGIGILDR, peptide start residue: 375)” was 0.441.
The value for “UniProt Q46829 (peptide sequence: LFAEMGFK, peptide start residue: 79)” was -0.411; that for “UniProt P77559 (peptide sequence: QILSMVDDAAAR, peptide start residue: 72)” was -0.0982; that for “UniProt P77360 (peptide sequence: SSGICGSDVHYIYHQHR, peptide start residue: 36)” was -0.437.
Under “UniProt P77634 (peptide sequence: ENGYKCPSR, peptide start residue: 235)” stands -0.56.
In the case of “UniProt P77609 (peptide sequence: KNEDATVQPDKK, peptide start residue: 82)”, the log2 fold change is -0.259.
For the target “UniProt P77335 (peptide sequence: MINTCNEYQK, peptide start residue: 281)”, the log2 fold change is 0.248.
Consider “UniProt P77712 (peptide sequence: ALALEGELR, peptide start residue: 116)”, for which the log2 fold change came out at 0.592.
As to “UniProt P77554 (peptide sequence: SLNRPAGTTIQDMIK, peptide start residue: 135)”, the log2 fold change is 0.367.
Under “UniProt Q46836 (peptide sequence: SHCPHCQQTIR, peptide start residue: 64)” stands 0.00641.
The value for “UniProt Q47679 (peptide sequence: VGSDGNGCHYRGDSR, peptide start residue: 194)” was -0.753; that for “UniProt Q57083 (peptide sequence: EGEILLEHIQR, peptide start residue: 66)” was -0.348.
Consider “UniProt P77791 (peptide sequence: EKMIAGELYR, peptide start residue: 6)”, for which the log2 fold change worked out at 0.697.
On to “UniProt P77562 (peptide sequence: AIDVASVVR, peptide start residue: 35)”, for which the log2 fold change was 0.698.
For the target “UniProt Q46901 (peptide sequence: NNQASILER, peptide start residue: 352)”, the log2 fold change is 0.501.
Under “UniProt Q46899 (peptide sequence: AEADNLDDKK, peptide start residue: 129)” stands -0.92; under “UniProt P77309 (peptide sequence: LSPAGHNFLR, peptide start residue: 57)”, -0.0915.
The value for “UniProt P77564 (peptide sequence: QWLQGMR, peptide start residue: 24)” was -0.0688; that for “UniProt P77626 (peptide sequence: AMLGQIER, peptide start residue: 35)” was 0.311.
The value for “UniProt Q47710 (peptide sequence: TTLKQQQLRG, peptide start residue: 90)” was -0.0751; that for “UniProt Q46866 (peptide sequence: KAPILFHYTNLAEGVTEQR, peptide start residue: 132)” was 0.704; that for “UniProt P77324 (peptide sequence: NTDLAAHER, peptide start residue: 75)” was -0.393.
“UniProt Q46939 (peptide sequence: MLEWDER, peptide start residue: 329)”: the log2 fold change was -0.212.
The value for “UniProt P77774 (peptide sequence: IYLVDQNDR, peptide start residue: 296)” was -0.293; that for “UniProt Q46835 (peptide sequence: QAQNISQNLPIK, peptide start residue: 39)” was -0.18.
Take “UniProt P77690 (peptide sequence: LEHLNTR, peptide start residue: 259)”: the log2 fold change is -0.316.
The value for “UniProt P77667 (peptide sequence: EGLNQIFK, peptide start residue: 97)” was 0.174; that for “UniProt P77622 (peptide sequence: KTDLPGNR, peptide start residue: 261)” was -0.252; that for “UniProt P77339 (peptide sequence: KAQVTQSNINK, peptide start residue: 31)” was 0.648.
For the target “UniProt P77334 (peptide sequence: LDQVFVR, peptide start residue: 582)”, the log2 fold change is -0.644.
The value for “UniProt Q46911 (peptide sequence: EIMVEGYRPSIAR, peptide start residue: 250)” was -0.329; that for “UniProt Q47150 (peptide sequence: DADDLFDKLGI, peptide start residue: 76)” was 0.766; that for “UniProt Q46801 (peptide sequence: EKPLTITEIRR, peptide start residue: 123)” was -0.236.
